These are yes or no findings as the source states them, for the method shown. In cells and extracts the contact can be indirect. Some entries that bind do so weakly or less than the wild type.

By UniProt entry, the sequences of proteins in these tests, tags left out.
UniProt A1Z8P9: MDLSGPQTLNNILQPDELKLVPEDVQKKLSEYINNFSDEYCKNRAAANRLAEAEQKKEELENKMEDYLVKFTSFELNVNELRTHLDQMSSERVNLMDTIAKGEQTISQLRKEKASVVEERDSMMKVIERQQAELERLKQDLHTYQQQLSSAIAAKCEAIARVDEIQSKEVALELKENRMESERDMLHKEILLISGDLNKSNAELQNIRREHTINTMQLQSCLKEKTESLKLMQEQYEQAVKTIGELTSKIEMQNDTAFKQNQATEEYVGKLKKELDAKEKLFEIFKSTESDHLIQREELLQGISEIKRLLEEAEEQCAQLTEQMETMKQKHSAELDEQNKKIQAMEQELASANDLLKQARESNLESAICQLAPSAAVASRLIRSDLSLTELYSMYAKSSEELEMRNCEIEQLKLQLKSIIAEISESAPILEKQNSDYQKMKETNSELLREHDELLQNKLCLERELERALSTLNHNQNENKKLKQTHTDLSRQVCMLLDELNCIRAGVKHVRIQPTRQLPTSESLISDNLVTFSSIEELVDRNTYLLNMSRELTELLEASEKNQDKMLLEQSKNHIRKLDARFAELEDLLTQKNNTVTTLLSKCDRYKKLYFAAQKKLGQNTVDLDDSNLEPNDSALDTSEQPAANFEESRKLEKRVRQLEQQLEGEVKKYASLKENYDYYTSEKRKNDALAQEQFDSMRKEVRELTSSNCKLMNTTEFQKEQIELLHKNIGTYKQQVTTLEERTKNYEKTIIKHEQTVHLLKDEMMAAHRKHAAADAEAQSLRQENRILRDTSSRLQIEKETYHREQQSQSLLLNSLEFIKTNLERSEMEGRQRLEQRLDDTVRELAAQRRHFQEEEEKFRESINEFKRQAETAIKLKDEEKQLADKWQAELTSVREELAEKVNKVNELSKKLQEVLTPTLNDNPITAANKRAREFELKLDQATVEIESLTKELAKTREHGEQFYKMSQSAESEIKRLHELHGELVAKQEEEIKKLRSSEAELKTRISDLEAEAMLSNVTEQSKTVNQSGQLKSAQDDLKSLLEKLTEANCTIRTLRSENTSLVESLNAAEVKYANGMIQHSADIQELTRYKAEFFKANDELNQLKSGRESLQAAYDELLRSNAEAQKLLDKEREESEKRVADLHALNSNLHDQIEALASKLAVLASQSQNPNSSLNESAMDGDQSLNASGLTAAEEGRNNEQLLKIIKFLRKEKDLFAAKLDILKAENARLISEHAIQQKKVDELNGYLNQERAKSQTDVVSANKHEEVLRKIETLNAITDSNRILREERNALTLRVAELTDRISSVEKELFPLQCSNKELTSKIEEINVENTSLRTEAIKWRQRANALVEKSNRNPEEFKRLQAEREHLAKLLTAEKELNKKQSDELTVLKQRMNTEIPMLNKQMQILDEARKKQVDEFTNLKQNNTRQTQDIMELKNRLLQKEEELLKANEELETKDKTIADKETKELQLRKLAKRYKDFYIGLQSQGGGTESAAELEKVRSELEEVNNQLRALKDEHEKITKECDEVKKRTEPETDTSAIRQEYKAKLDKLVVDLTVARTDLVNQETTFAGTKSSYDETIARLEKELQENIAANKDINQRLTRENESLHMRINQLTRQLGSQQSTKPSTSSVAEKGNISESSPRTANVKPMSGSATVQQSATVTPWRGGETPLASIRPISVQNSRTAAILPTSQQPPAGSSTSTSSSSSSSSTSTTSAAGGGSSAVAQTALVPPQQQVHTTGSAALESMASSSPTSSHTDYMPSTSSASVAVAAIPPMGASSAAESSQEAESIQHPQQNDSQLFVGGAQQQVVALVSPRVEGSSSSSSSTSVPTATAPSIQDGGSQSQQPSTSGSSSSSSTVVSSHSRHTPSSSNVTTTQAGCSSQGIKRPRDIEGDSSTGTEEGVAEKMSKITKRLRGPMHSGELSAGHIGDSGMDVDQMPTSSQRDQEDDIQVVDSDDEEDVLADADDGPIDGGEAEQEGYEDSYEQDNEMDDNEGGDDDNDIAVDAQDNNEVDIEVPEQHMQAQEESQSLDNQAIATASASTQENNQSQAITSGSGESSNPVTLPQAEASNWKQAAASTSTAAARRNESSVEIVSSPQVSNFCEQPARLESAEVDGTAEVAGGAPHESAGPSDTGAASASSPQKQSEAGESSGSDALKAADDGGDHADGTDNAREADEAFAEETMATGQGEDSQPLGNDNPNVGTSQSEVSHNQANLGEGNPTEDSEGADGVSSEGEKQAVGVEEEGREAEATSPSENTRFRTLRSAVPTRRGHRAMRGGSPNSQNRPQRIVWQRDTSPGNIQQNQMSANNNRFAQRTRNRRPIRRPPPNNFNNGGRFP
UniProt Q9VXE6: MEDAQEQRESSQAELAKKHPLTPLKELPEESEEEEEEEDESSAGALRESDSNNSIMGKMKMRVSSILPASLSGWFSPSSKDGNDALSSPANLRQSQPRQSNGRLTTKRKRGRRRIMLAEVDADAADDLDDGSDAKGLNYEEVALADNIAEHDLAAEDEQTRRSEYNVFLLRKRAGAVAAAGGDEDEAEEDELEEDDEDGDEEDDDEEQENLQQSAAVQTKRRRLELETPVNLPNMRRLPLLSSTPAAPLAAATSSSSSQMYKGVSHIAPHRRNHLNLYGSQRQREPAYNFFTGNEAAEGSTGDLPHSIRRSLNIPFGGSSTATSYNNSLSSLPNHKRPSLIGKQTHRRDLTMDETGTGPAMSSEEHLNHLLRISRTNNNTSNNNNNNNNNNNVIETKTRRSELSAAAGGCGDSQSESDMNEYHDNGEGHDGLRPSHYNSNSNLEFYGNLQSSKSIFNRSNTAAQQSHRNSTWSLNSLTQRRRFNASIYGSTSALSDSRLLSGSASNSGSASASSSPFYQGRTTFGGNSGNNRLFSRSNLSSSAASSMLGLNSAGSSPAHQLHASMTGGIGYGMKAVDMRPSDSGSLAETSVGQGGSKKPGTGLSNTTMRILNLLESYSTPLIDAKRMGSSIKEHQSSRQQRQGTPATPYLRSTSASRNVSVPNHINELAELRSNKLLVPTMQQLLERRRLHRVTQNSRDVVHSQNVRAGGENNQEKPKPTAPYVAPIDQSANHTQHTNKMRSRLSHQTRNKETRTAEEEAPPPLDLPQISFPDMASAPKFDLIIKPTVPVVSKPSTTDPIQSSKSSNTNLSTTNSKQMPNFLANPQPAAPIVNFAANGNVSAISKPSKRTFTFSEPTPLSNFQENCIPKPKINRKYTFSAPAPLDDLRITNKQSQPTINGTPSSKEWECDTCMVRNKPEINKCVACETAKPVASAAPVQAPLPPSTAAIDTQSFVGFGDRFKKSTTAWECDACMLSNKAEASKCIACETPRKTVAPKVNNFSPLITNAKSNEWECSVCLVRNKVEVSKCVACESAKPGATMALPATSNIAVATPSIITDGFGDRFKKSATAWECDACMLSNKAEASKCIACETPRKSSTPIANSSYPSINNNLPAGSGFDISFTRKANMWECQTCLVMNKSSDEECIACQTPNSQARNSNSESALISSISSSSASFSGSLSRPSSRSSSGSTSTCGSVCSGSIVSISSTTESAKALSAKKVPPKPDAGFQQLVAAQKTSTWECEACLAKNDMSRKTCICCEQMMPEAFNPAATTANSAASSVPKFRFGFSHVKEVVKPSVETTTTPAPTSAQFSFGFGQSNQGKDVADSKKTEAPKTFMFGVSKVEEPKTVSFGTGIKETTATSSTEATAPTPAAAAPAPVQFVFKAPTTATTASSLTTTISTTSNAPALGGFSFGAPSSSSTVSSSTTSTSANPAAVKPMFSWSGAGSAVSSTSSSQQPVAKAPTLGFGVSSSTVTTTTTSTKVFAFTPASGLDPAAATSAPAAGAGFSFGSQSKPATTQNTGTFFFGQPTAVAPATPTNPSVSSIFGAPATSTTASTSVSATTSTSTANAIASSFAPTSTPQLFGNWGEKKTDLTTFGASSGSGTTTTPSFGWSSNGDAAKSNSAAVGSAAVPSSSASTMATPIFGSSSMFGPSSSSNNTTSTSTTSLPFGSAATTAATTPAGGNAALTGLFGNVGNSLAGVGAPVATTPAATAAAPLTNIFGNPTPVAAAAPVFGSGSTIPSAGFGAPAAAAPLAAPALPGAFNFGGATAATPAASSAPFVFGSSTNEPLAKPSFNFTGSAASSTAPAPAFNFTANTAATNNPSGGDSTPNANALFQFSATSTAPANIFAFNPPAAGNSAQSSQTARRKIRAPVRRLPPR

Test in all cases: co-IP; endogenous proteins; nuclear extract from 0 to 12 h Drosophila embryos treated with DNase and RNase; polyclonal antibodies against TREX-2 subunits, Nup153 or TPR on protein A-Sepharose; IP buffer 25 mM Tris-HCl pH 7.9, 10% glycerol, 0.1% NP-40, 0.5 mM DTT, 5 mM MgCl2, 100 mM KCl; washes with 500 mM KCl and 100 mM KCl; Western blot
(A western blot detects proteins with antibodies after separation by electrophoresis.)

Experiment [1] concerns the target T1, PCID2 (Drosophila (endogenous in embryos)) (UniProt Q9VTL1).
T1 sequence: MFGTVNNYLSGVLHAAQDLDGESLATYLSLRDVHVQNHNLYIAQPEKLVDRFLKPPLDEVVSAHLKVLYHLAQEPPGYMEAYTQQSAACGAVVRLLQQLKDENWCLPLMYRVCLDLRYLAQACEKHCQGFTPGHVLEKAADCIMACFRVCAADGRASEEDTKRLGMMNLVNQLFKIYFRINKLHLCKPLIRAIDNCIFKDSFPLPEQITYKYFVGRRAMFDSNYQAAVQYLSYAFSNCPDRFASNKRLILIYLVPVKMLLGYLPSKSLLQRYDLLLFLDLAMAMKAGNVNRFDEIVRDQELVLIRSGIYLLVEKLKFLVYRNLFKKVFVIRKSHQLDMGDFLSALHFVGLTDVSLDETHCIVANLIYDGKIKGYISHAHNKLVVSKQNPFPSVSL

Experiment [2] deals with T2, ENY2 (Drosophila (endogenous in embryos)) (UniProt Q9VYX1).
T2 sequence: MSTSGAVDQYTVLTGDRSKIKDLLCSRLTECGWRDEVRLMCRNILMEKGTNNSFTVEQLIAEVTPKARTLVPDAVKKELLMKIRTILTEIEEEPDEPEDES

Experiment [3] addresses TPR/Megator (Drosophila (endogenous in embryos)) (UniProt A1Z8P9).
Experiment [4] addresses Nup153 (Drosophila (endogenous in embryos)) (UniProt Q9VXE6).

Turning to Nup153 (from UniProt Q9VXE6 1-1883), the binding result in experiment [1] and in experiment [2] was “binds” each time.

B1: ENY2 (protein, UniProt Q9VYX1 1-101)
chain: T2 sequence
On to B1, for which the binding result in experiment [3] is on record as “binds weakly”; in experiment [4], “binds”.

Values taken from paper PMC12429265.
